Record: PubChem BioAssay AID1259308 (NCATS, 2017)
In all, the deposit lists about 59,000 reagents; below is a part drawn at random. About 1,510 of them (2.6%) count as active. 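Calls use total luciferase alone and ignore viability, so some active siRNAs may act by altering cell number.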 The numbers tell different reagents against one gene apart. Not all columns of the deposit are shown.

Aim: 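Genes whose loss raises luciferase production in HEK293 cells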 (primary screen)
Cells: human HEK293 embryonic kidney cells stably expressing firefly luciferase (HEK-CMV-Luc2-Hygro)
Knock-down reagent: single siRNA against human genes, 0.8 pmol siRNA per well
Time to read-out: 72 h
Detection: 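Luciferase light (ONE-Glo) measured on one replicate plate set and viability (CellTiter-Glo) on the other, scaled to a negative control siRNA, with robust z-scores and luciferase per cell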
Scale: total luciferase, z-score: higher = more reporter protein produced
Hit rule: 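Active when the median/MAD z-score for overall luciferase is greater than 3; a gene was taken forward for validation with new siRNAs if at least two of its three siRNAs passed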
Meaning of the calls: active = raised luciferase; inactive = no rise

gene	reagent	total luciferase, z-score	call
RDH13 (retinol dehydrogenase 13)	1	1.09	inactive
RDH13 (retinol dehydrogenase 13)	2	-0.1	inactive
RDH13 (retinol dehydrogenase 13)	3	0.942	inactive
RER1 (retention in endoplasmic reticulum sorting receptor 1)	1	0.454	inactive
RER1 (retention in endoplasmic reticulum sorting receptor 1)	2	1.82	inactive
RER1 (retention in endoplasmic reticulum sorting receptor 1)	3	-0.0974	inactive
DIO2 (iodothyronine deiodinase 2)	1	0.475	inactive
DIO2 (iodothyronine deiodinase 2)	2	-0.845	inactive
DIO2 (iodothyronine deiodinase 2)	3	1.56	inactive
IDH2 (isocitrate dehydrogenase (NADP(+)) 2)	1	0.174	inactive
IDH2 (isocitrate dehydrogenase (NADP(+)) 2)	2	0.423	inactive
IDH2 (isocitrate dehydrogenase (NADP(+)) 2)	3	1.56	inactive
DPP3 (dipeptidyl peptidase 3)	1	-0.435	inactive
DPP3 (dipeptidyl peptidase 3)	2	1.45	inactive
DPP3 (dipeptidyl peptidase 3)	3	-0.86	inactive
IL31 (interleukin 31)	1	1.93	inactive
IL31 (interleukin 31)	2	-1.23	inactive
IL31 (interleukin 31)	3	1.06	inactive
KRTAP9-3 (keratin associated protein 9-3)	1	-0.592	inactive
KRTAP9-3 (keratin associated protein 9-3)	2	2.56	inactive
KRTAP9-3 (keratin associated protein 9-3)	3	1.34	inactive
CENPL (centromere protein L)	1	0.651	inactive
CENPL (centromere protein L)	2	0.625	inactive
CENPL (centromere protein L)	3	-0.267	inactive
CENPL (centromere protein L)	4	-0.151	inactive
CENPL (centromere protein L)	5	-1.66	inactive
CENPL (centromere protein L)	6	0.0271	inactive
VPS52 (VPS52 subunit of GARP complex)	1	-1.13	inactive
VPS52 (VPS52 subunit of GARP complex)	2	1.19	inactive
VPS52 (VPS52 subunit of GARP complex)	3	0.685	inactive

The list goes on (2 carried over from the part before).
gene	reagent	total luciferase, z-score	call
VPS52 (VPS52 subunit of GARP complex)	2	1.19	inactive
VPS52 (VPS52 subunit of GARP complex)	3	0.685	inactive
TOMM22 (translocase of outer mitochondrial membrane 22)	1	-0.0202	inactive
TOMM22 (translocase of outer mitochondrial membrane 22)	2	0.292	inactive
TOMM22 (translocase of outer mitochondrial membrane 22)	3	-0.0872	inactive
ZDHHC13 (zDHHC palmitoyltransferase 13)	1	-2.11	inactive
ZDHHC13 (zDHHC palmitoyltransferase 13)	2	0.111	inactive
ZDHHC13 (zDHHC palmitoyltransferase 13)	3	-1.05	inactive
ZNF473CR (ZNF473 cis regulating lncRNA)	1	1.01	inactive
ZNF473CR (ZNF473 cis regulating lncRNA)	2	-0.171	inactive
ZNF473CR (ZNF473 cis regulating lncRNA)	3	0.114	inactive
MACC1 (MET transcriptional regulator MACC1)	1	-2.3	inactive
MACC1 (MET transcriptional regulator MACC1)	2	-0.886	inactive
MACC1 (MET transcriptional regulator MACC1)	3	0.819	inactive
BCO2 (beta-carotene oxygenase 2)	1	0.644	inactive
BCO2 (beta-carotene oxygenase 2)	2	0.0846	inactive
BCO2 (beta-carotene oxygenase 2)	3	-0.828	inactive
CFAP58 (cilia and flagella associated protein 58)	1	0.977	inactive
CFAP58 (cilia and flagella associated protein 58)	2	1.53	inactive
CFAP58 (cilia and flagella associated protein 58)	3	-1.03	inactive
MKRN3 (makorin ring finger protein 3)	1	1.34	inactive
MKRN3 (makorin ring finger protein 3)	2	-0.717	inactive
MKRN3 (makorin ring finger protein 3)	3	-0.101	inactive
E2F8 (E2F transcription factor 8)	1	-2	inactive
E2F8 (E2F transcription factor 8)	2	2.45	inactive
E2F8 (E2F transcription factor 8)	3	-1.73	inactive
KRT126P (keratin 126, pseudogene)	1	1.45	inactive
KRT126P (keratin 126, pseudogene)	2	-0.452	inactive
KRT126P (keratin 126, pseudogene)	3	0.15	inactive
